# Reference: the supplement of paper PMC12819154, “High-throughput peptide-centric local stability assay extends protein–ligand identification to membrane proteins, tissues and bacteria” (Nature Structural & Molecular Biology, 2025)
# Amino acid sequences for entries named in this document (tags omitted). A change or cut given only in a name is not applied to a line headed by its entry.
# UniProt P38060: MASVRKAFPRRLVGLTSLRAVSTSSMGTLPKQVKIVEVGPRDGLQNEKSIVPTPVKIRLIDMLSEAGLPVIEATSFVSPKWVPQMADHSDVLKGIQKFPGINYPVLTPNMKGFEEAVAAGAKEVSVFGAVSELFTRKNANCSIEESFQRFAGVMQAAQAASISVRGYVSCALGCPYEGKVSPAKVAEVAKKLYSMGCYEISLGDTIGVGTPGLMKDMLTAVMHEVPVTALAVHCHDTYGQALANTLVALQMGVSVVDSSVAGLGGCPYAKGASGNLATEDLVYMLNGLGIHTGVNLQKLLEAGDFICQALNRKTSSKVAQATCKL
# UniProt P37913: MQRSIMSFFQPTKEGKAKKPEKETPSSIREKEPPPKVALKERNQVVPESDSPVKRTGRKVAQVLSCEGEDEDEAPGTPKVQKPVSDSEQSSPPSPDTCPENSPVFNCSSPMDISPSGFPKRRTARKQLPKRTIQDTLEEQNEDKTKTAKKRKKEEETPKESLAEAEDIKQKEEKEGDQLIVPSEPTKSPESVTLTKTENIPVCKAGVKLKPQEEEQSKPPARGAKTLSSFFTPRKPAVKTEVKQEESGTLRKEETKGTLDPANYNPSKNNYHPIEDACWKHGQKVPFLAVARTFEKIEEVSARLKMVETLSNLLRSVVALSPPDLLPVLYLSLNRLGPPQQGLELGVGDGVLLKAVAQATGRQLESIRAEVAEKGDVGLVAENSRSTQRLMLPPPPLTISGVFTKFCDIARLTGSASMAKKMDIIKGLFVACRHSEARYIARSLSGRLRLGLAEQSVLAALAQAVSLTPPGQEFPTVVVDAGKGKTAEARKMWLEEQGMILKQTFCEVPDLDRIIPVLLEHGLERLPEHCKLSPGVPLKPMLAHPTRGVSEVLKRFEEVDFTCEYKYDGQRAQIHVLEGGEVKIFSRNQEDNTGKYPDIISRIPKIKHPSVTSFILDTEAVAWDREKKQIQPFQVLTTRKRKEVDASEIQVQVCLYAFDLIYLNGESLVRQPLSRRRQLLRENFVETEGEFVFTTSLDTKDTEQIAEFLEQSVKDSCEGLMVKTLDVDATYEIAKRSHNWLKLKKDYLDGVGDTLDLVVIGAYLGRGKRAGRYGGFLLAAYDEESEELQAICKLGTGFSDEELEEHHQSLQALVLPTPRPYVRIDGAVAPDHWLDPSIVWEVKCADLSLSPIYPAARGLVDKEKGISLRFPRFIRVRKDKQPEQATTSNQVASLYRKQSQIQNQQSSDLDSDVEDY
# UniProt P41317: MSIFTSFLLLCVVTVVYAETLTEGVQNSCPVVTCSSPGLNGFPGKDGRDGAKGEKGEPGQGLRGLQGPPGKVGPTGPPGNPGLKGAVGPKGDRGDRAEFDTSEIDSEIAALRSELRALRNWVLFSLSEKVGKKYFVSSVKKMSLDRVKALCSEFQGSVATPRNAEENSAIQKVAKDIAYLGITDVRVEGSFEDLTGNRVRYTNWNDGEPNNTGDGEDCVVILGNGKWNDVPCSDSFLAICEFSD
# UniProt P36371: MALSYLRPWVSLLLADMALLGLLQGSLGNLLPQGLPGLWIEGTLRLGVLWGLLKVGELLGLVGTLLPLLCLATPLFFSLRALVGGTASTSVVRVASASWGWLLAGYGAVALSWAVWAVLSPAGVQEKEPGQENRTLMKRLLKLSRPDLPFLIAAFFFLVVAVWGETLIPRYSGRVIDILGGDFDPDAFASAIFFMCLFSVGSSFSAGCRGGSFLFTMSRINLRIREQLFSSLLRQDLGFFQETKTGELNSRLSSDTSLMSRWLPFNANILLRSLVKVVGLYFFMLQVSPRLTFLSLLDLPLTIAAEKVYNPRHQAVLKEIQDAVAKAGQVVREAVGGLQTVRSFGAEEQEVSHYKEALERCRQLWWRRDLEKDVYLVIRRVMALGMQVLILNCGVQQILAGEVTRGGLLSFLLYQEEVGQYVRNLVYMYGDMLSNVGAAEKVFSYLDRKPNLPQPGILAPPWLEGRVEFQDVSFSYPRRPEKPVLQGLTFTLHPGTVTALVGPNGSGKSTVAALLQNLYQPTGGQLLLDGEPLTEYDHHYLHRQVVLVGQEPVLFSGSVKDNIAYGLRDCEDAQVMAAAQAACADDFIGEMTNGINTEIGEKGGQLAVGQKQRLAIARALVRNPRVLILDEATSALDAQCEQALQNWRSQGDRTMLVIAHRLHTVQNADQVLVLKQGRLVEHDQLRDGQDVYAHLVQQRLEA
# UniProt P43407, whole entry: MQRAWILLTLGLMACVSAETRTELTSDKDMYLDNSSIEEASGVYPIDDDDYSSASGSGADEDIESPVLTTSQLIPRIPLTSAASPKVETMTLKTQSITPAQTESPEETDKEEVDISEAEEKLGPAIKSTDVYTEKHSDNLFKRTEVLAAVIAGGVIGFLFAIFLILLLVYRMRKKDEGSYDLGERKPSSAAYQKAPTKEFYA
# UniProt P35831: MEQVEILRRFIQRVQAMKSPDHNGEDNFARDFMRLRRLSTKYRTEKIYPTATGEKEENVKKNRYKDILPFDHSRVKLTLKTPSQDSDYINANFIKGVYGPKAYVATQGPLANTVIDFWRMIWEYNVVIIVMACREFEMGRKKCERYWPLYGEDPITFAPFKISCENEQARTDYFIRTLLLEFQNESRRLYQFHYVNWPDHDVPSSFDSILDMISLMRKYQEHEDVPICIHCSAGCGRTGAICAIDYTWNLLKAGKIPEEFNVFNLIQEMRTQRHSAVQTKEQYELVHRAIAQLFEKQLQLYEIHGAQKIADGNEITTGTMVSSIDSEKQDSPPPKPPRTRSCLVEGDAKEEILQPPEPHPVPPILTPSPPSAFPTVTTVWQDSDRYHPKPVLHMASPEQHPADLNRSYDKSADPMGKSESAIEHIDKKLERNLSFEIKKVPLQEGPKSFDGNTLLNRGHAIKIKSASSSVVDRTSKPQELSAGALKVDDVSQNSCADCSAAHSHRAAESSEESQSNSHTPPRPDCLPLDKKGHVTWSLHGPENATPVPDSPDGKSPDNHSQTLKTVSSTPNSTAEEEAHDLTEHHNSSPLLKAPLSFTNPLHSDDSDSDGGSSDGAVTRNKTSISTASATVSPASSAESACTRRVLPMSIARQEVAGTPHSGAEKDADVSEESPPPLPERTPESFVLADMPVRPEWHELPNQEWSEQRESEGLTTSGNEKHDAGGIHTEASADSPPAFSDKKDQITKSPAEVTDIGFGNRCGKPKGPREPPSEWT
# UniProt P50295: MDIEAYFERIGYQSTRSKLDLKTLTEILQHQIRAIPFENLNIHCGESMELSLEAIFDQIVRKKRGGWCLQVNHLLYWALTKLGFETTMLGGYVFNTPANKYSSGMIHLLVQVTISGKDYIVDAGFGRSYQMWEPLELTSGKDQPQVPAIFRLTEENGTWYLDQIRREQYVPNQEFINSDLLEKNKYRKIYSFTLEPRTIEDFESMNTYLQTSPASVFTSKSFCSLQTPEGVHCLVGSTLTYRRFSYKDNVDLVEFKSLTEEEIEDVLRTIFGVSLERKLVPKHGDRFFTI
# UniProt P51908: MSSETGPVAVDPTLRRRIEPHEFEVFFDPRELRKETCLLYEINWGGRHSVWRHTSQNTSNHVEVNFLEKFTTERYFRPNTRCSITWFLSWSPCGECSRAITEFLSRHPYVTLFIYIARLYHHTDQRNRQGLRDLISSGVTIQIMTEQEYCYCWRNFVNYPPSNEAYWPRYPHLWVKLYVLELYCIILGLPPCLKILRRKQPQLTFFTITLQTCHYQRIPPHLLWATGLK
# UniProt P41136: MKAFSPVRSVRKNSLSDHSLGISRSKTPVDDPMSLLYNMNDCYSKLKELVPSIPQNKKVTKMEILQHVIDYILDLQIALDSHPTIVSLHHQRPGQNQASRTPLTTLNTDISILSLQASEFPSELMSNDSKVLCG
# UniProt P42209: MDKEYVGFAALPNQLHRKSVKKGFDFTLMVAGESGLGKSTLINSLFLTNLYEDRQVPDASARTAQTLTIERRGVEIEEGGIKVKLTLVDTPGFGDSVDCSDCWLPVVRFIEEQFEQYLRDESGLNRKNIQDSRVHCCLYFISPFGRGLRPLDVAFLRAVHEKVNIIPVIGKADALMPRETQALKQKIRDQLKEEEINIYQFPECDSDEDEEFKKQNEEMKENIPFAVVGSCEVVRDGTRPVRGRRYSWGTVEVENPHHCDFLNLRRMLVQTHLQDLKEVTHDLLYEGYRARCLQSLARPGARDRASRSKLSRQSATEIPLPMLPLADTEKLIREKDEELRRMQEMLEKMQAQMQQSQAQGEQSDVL
# UniProt P39749, whole entry: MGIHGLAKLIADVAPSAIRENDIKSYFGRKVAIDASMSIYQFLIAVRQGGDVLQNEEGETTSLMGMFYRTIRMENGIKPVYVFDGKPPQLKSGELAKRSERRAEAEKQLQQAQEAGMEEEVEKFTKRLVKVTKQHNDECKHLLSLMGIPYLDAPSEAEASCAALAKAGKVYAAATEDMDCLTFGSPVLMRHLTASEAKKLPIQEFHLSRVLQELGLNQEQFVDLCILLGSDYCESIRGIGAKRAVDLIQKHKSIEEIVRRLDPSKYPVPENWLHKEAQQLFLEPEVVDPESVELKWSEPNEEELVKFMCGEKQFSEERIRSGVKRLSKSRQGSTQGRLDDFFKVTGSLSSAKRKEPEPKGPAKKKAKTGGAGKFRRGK
# The list shows a part of the results. Most values lie at the level of the controls, where differences are scatter.
# Compound: CN[C@@H]1C[C@H]2O[C@@](C)([C@@H]1OC)n1c3ccccc3c3c4c(c5c6ccccc6n2c5c31)C(=O)NC4 [staurosporine]
# Assay: log2 fold change of tryptic peptide abundance, ligand vs vehicle (limited proteolysis) (log2 ratio); higher = more trypsin-susceptible (destabilized)
# Conditions: ligand concentration: 20 uM; sample: mouse liver crude lysate; replicate design: treated separately
row,Target,log2 fold change
1,"UniProt P38060 (peptide sequence: SIVPTPVKIR, peptide start residue: 49)",0.323
2,"UniProt P37913 (peptide sequence: TEVKQEESGTLR, peptide start residue: 240)",-0.305
3,"UniProt P41317 (peptide sequence: VKALCSEFQGSVATPR, peptide start residue: 147)",-0.162
4,"UniProt P36371 (peptide sequence: IREQLFSSLLR, peptide start residue: 224)",0.321
5,"UniProt P43407 (peptide sequence: KPSSAAYQK, peptide start residue: 186)",-0.147
6,"UniProt P35831 (peptide sequence: HDAGGIHTEASADSPPAFSDKK, peptide start residue: 721)",-0.144
7,"UniProt P50295 (peptide sequence: TLTEILQHQIR, peptide start residue: 23)",0.108
8,"UniProt P51908 (peptide sequence: IPPHLLWATGLK, peptide start residue: 218)",-0.511
9,"UniProt P41136 (peptide sequence: ELVPSIPQNK, peptide start residue: 48)",-0.376
10,"UniProt P42209 (peptide sequence: EVTHDLLYEGYR, peptide start residue: 278)",-0.332
11,"UniProt P39749 (peptide sequence: LIADVAPSAIRENDIK, peptide start residue: 9)",-0.472
